Reference: patent US20210290816A1, “LIQUID EMBOLICS” (MicroVention, Inc., priority 2020, published 2021)
At least one structure is not confirmed: it was looked up by name or label, or the drawing left a doubt.

Experiment: In vitro elution of temozolomide from PHIL® solution
Format: physicochemical
Conditions: 50 mg in 1 mL 25 wt % PHIL®, 99 mL water with 0.5% acetic acid, room temperature

## Cn1nnc2c(C(N)=O)ncn2c1=O [temozolomide]
First 90 minutes
  total amount of temozolomide eluted: 39 mg per 1 mL of PHIL®
Within the first 35 minutes
  sharp increase of temozolomide eluted: 34 mg
